Measured values from PMC5645524.
These are yes or no findings as the source states them, for the method shown. Some results given as binding are weak or reduced against the parent protein; the word gives no strength.

Sequences of proteins named here, by UniProt entry; tags and fusion partners are left off. A change or cut given only in a name is not applied to a line headed by its entry.
UniProt P12883: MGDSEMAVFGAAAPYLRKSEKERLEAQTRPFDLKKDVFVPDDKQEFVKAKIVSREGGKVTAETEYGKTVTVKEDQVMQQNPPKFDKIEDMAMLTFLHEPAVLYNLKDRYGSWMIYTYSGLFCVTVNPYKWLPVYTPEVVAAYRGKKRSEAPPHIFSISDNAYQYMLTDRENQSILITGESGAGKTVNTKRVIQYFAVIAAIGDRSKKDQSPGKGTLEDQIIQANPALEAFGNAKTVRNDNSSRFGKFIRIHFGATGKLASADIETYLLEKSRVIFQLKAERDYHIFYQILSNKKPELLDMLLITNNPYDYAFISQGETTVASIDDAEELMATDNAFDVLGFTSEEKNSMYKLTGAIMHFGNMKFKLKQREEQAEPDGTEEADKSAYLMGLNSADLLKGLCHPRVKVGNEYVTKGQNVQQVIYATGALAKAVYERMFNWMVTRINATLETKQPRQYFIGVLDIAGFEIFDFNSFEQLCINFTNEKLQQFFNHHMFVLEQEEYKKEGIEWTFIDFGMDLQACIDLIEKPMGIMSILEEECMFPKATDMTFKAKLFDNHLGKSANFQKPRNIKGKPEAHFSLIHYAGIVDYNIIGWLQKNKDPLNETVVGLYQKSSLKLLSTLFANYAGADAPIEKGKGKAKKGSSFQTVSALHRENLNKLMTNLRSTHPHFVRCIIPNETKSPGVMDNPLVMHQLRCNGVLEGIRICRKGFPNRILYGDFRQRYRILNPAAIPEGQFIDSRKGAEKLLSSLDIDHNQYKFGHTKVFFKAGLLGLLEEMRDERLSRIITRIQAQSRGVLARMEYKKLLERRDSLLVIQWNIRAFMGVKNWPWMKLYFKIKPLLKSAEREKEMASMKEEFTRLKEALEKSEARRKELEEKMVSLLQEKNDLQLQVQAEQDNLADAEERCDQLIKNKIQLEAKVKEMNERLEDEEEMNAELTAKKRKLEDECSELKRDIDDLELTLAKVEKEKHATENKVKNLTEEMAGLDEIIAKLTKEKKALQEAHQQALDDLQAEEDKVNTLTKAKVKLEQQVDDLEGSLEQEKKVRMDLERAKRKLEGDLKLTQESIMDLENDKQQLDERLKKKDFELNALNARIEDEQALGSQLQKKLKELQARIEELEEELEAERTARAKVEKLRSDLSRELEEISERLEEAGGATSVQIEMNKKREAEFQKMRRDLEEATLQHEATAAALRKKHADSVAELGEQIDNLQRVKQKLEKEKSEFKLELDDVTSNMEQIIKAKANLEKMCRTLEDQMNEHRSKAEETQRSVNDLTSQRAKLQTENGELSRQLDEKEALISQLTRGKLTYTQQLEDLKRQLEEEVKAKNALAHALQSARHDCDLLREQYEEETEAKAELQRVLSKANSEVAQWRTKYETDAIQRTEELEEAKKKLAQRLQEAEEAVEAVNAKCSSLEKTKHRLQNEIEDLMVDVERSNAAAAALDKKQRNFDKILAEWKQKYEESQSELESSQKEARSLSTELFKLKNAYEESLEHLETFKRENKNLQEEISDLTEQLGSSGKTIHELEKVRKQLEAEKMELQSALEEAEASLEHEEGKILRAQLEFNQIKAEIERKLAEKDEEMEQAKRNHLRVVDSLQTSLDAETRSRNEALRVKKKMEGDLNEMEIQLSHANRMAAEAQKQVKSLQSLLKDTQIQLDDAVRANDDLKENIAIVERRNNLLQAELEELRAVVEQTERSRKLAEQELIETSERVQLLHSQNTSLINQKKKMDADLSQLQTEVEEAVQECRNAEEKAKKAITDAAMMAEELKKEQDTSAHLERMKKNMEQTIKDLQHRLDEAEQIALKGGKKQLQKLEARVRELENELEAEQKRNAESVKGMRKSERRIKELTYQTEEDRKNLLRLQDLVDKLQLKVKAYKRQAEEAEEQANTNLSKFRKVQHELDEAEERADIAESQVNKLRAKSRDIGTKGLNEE
UniProt P10916: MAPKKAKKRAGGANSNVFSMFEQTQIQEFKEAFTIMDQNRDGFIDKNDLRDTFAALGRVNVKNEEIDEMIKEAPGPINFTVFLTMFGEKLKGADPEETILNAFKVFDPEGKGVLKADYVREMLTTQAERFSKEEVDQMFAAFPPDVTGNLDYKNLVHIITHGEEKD
UniProt P05976: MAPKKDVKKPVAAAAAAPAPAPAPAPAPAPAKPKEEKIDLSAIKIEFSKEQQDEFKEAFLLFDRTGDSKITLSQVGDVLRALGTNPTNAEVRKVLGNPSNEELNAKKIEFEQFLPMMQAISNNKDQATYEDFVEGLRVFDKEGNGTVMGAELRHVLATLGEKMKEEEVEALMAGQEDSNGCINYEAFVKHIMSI

Biological target: Native ventricular myosin in human ventricular myocytes (human (endogenous in ventricular myocytes)) (UniProt P12883+P10916)
Assay: exchange of labelled light chain into myocyte myosin, read by fluorescence anisotropy and lifetime imaging; 5 nM labelled LC with 2 mg/ml freshly prepared myocytes in exchange solution (15 mM KCl, 5 mM EDTA, 5 mM DTT, 10 mM KH2PO4, 5 mM ATP, 1 mM TFP, 10 mM imidazole, pH 7), 30 C, 10 min; only the binder purified

**Q.** How did the binding turn out when “Recombinant human essential light chain G174C (G174C-hLC), labelled with SeTau-647 maleimide (from UniProt P05976 1-194)” was run?
**A.** The binding was “binds”.
